# Measured values reported in the supplement of paper PMC4807443.
# Structures can show the parent of a compound that is named as a salt. The list shows a part of the results. The numbers are fractions of the control, whatever unit the source prints. Most values lie at the level of the controls, where differences are scatter.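 MIN6 is a mouse insulinoma beta-cell line that stably carries a lentiviral reporter in which the Pdx1 and Ins1 promoters each drive a nucleus-targeted fluorescent protein; cells were counted by automated imaging with a Hoechst nuclear stain. In the screen, a drug was a possible hit when its Ins1 promoter readout lay beyond two median absolute deviations from the DMSO controls while Pdx1 activity stayed near normal.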
# Test system: MIN6
# Assay: % Pdx1+ Ins1-low (RFP-only, immature) cells relative to DMSO control (fold of DMSO control); higher = more immature Pdx1+/Ins1-low cells
# Settings: 8.5 µM; 48 h; glucose 5 mM
row,Compound,% Pdx1+ Ins1-low
1,O=C(O)c1cc(/N=N/c2ccc(S(=O)(=O)Nc3ccccn3)cc2)ccc1O [Sulfasalazine],1.3
2,CN/C(=N\CCSCc1nc[nH]c1C)NC#N [Cimetidine],1.02
3,CCc1cccc(CC)c1NC(=O)CN(CC(=O)O)CC(=O)O [Etifenin],1.07
4,CC1(C)S[C@@H]2[C@H](NC(=O)C3(N)CCCCC3)C(=O)N2[C@H]1C(=O)O [Cyclacillin],0.809
5,C[C@@H]1CCC[C@H](C)N1 [(cis-) Nanophine],0.883
6,CC(N)CCCC(C)(C)O (stereo not drawn) [Heptaminol hydrochloride],1.05
7,CN1CCCN=C1/C=C/c1cccc(O)c1 [Oxantel pamoate],1.57
8,CC(C)OC(=O)C(C)(C)Oc1ccc(C(=O)c2ccc(Cl)cc2)cc1 [Fenofibrate],0.852
9,"Cc1c(O)c(=O)n(-c2ccccc2)n1C [Antipyrine, 4-hydroxy]",1.12
10,C[C@H]1[C@H](C)CC[C@]2(C(=O)O[C@@H]3O[C@H](CO[C@@H]4O[C@H](CO)[C@@H](O[C@@H]5O[C@H](C)[C@H](O)[C@@H](O)[C@H]5O)[C@H](O)[C@H]4O)[C@@H](O)[C@H](O)[C@H]3O)CC[C@]3(C)C(=CC[C@@H]4[C@@]5(C)C[C@@H](O)[C@H](O)[C@@](C)(CO)[C@@H]5CC[C@]43C)[C@H]12 [Asiaticoside],0.74
11,CN(C)[C@@H]1C(O)=C(C(N)=O)C(=O)[C@@]2(O)C(O)=C3C(=O)c4c(O)cccc4[C@@](C)(O)[C@H]3C[C@@H]12 [Tetracycline hydrochloride],0.944
12,O=C(O)C1CCCNC1 (racemic) [(±)-Nipecotic acid],0.888
13,COCCCC/C(=N\OCCN)c1ccc(C(F)(F)F)cc1 [Fluvoxamine maleate],1.11
14,C[C@]12CCC(=O)C=C1CC[C@@H]1[C@@H]2C(=O)C[C@@]2(C)[C@H]1CC[C@]2(O)C(=O)CO [Cortisone],0.795
15,CO[C@H]1/C=C/O[C@@]2(C)Oc3c(C)c(O)c4c(O)c(c(/C=N/N5CCN(C)CC5)c(O)c4c3C2=O)NC(=O)/C(C)=C\C=C\[C@H](C)[C@H](O)[C@@H](C)[C@@H](O)[C@@H](C)[C@H](OC(C)=O)[C@@H]1C [Rifampicin],1.03
16,CCCSc1ccc2[nH]c(NC(=O)OC)nc2c1 [Albendazole],1.09
17,Cc1c(Cl)cccc1Nc1ccccc1C(=O)O [Tolfenamic acid],0.905
18,Cc1ccc(N(CC2=NCCN2)c2cccc(O)c2)cc1 [Phentolamine hydrochloride],1.17
19,O=C(O)CCc1nc(-c2ccccc2)c(-c2ccccc2)o1 [Oxaprozin],0.85
20,Clc1ccc2c(c1)C(N1CCNCC1)=Nc1ccccc1O2 [Amoxapine],1.07
21,O=C1c2ccccc2C(=O)C1c1ccccc1 [Phenindione],1.05
22,CC(C)(Oc1ccc(CCNC(=O)c2ccc(Cl)cc2)cc1)C(=O)O [Bezafibrate],1.11
23,OCCN1CCN(CCCN2c3ccccc3Sc3ccc(C(F)(F)F)cc32)CC1 [Fluphenazine dihydrochloride],1.03
24,c1ccc(CC2=NCCN2)cc1 [Tolazoline hydrochloride],0.849
25,CC[C@H]1OC(=O)[C@H](C)[C@@H](O[C@H]2C[C@@](C)(OC)[C@@H](O)[C@H](C)O2)[C@H](C)[C@@H](O[C@@H]2O[C@H](C)C[C@H](N(C)C)[C@H]2O)[C@](C)(O)C[C@@H](C)C(=O)[C@H](C)[C@@H](O)[C@]1(C)O [Erythromycin],1.37

row,Compound,% Pdx1+ Ins1-low
1,CCn1cc(C(=O)O)c(=O)c2cc(F)c(N3CCNCC3)nc21 [Enoxacin],1.08
2,CC(C(=O)O)c1cccc(Oc2ccccc2)c1 (stereo not drawn) [Fenoprofen calcium salt dihydrate],0.533
3,CCCc1ncc(C[n+]2ccccc2C)c(N)n1 [Amprolium hydrochloride],0.997
4,C=C(CC)C(=O)c1ccc(OCC(=O)O)c(Cl)c1Cl [Ethacrynic acid],1.25
5,Nc1ccc(S(=O)(=O)NC(=O)c2ccccc2)cc1 [Sulfabenzamide],0.976
6,CCN(CC)CCCC(C)Nc1ccnc2cc(Cl)ccc12 (stereo not drawn) [Chloroquine diphosphate],1.05
7,CS(=O)(=O)c1ccc([C@@H](O)[C@@H](CF)NC(=O)C(Cl)Cl)cc1 [Florfenicol],1.01
8,c1ccc2c(c1)CCCC2C1=NCCN1 (stereo not drawn) [Tetrahydrozoline hydrochloride],1.11
9,C[C@@H](O)[C@H]1C(=O)N2C(C(=O)O)=C(SCCNC=N)C[C@H]12 [Imipenem],0.806
10,"OCC(O)CN1CCN(c2ccccc2)CC1 (racemic) [Dropropizine (R,S)]",1.39
11,CNc1ncnc2c1ncn2[C@@H]1O[C@H](CO)[C@@H](O)[C@H]1O [N6-methyladenosine],0.58
12,CC(C)(C)C(=O)OCOC(=O)[C@@H]1N2C(=O)[C@@H](/N=C/N3CCCCCC3)[C@H]2SC1(C)C [Pivmecillinam hydrochloride],0.889
13,O=C1NCCN1c1ncc([N+](=O)[O-])s1 [Niridazole],0.824
14,C=C(C)[C@@H]1CC[C@]2(C(=O)O)CC[C@]3(C)[C@H](CC[C@@H]4[C@@]5(C)CC[C@H](O)C(C)(C)[C@@H]5CC[C@]43C)[C@@H]12 [Betulinic acid],1.27
15,NNCCc1ccccc1 [Phenelzine sulfate],1.1
16,C=C1CC[C@H](O)C/C1=C/C=C1\CCC[C@]2(C)[C@@H]([C@H](C)CCCC(C)C)CC[C@@H]12 [Cholecalciferol],0.985
17,CC(Cc1cccc(C(F)(F)F)c1)NCCOC(=O)c1ccccc1 (stereo not drawn) [Benfluorex hydrochloride],0.779
18,CC(=O)S[C@@H]1CC2=CC(=O)CC[C@]2(C)[C@H]2CC[C@@]3(C)[C@@H](CC[C@@]34CCC(=O)O4)[C@H]12 [Spironolactone],0.917
19,N=C(N)NC(=N)NCCc1ccccc1 [Phenformin hydrochloride],1.17
20,CC(C)(C)NC[C@@H](O)COc1cccc2c1CCCC2=O [(+) -Levobunolol hydrochloride],1.35
21,CN1CCC(=C2c3ccccc3C=Cc3ccccc32)CC1 [Cyproheptadine hydrochloride],1.48
22,OCCN1CCN(CC/C=C2/c3ccccc3Sc3ccc(C(F)(F)F)cc32)CC1 [Flupentixol dihydrochloride cis-(Z)],0.718
23,CC[N+](C)(C)c1cccc(O)c1 [Edrophonium chloride],1.01
24,CCCOc1cc(N)ccc1C(=O)OCCN(CC)CC [Propoxycaine hydrochloride],0.986
25,CCN[C@H]1CN(CCCOC)S(=O)(=O)c2sc(S(N)(=O)=O)cc21 [Brinzolamide],1.07

# Molecules listed so far containing an NH in an aromatic ring (two):
row,Compound,% Pdx1+ Ins1-low
2,CN/C(=N\CCSCc1nc[nH]c1C)NC#N [Cimetidine],1.02
16,CCCSc1ccc2[nH]c(NC(=O)OC)nc2c1 [Albendazole],1.09

# Next part

row,Compound,% Pdx1+ Ins1-low
1,Cc1ncc(C[n+]2csc(CCO)c2C)c(N)n1 [Thiamine hydrochloride],0.76
2,C=CC(N)CCC(=O)O (stereo not drawn) [Vigabatrin],1.48
3,NS(=O)(=O)c1cc(C2(O)NC(=O)c3ccccc32)ccc1Cl (stereo not drawn) [Chlorthalidone],1.04
4,COc1ccc2c3c([nH]c2c1)[C@H]1C[C@H]2[C@H](C[C@@H](O)[C@H](OC)[C@H]2C(=O)O)CN1CC3 [Reserpinic acid hydrochloride],0.922
5,CC(=O)OCC(=O)[C@@]1(O)CC[C@H]2[C@@H]3CCC4=CC(=O)CC[C@]4(C)[C@@]3(F)[C@@H](O)C[C@@]21C [Fludrocortisone acetate],1.91
6,CC[N+](C)(CC)CCOC(=O)C1c2ccccc2Oc2ccccc21 [Methantheline bromide],1.02
7,COC(=O)Nc1nc2cc(C(=O)c3cccs3)ccc2[nH]1 [Nocodazole],0.707
8,Cc1ccc(C(=O)c2ccc(CC(=O)O)n2C)cc1 [Tolmetin sodium salt dihydrate],0.606
9,CCCCN(CCCC)CCCOC(=O)c1ccc(N)cc1 [Butacaine],1.02
10,CN(C)CCCN1c2ccccc2Sc2ccc(C(F)(F)F)cc21 [Triflupromazine hydrochloride],0.782
11,COc1ccc([C@@H]2CC(=O)c3c(O)cc(O)cc3O2)cc1O [Hesperetin],1.03
12,CC(N/C(=N\C#N)Nc1ccncc1)C(C)(C)C (stereo not drawn) [Pinacidil],0.996
13,CCN(CC)CCOC(=O)C1(C2CCCCC2)CCCCC1 [Dicyclomine hydrochloride],1.04
14,Cc1[nH]ccc2c1[nH]c1cc(=O)ccc12 [Harmol hydrochloride monohydrate],1.03
15,COc1cc(C(=O)OCCCN2CCCN(CCCOC(=O)c3cc(OC)c(OC)c(OC)c3)CC2)cc(OC)c1OC [Dilazep dihydrochloride],1.29
16,O=C(O)Cc1ccc(-c2ccccc2)cc1 [Felbinac],0.67
17,C[C@@H]1C[C@H]2[C@@H]3C[C@H](F)C4=CC(=O)C=C[C@]4(C)[C@@]3(F)[C@@H](O)C[C@]2(C)[C@@]1(O)C(=O)CO [Flumethasone],1.51
18,CN1CCN(C2=Nc3ccccc3Oc3ccc(Cl)cc32)CC1 [Loxapine succinate],0.674
19,COc1c2occc2cc2ccc(=O)oc12 [Methoxy-8-psoralen],0.622
20,NCc1ccccc1CC(=O)N[C@@H]1C(=O)N2C(C(=O)O)=C(CSc3nnnn3CC(=O)O)CS[C@H]12 [Ceforanide],0.632
21,N=C(NCCCCCCNC(=N)NC(=N)Nc1ccc(Cl)cc1)NC(=N)Nc1ccc(Cl)cc1 [Chlorhexidine],0.755
22,N#Cc1ccc(C(c2ccc(C#N)cc2)n2cncn2)cc1 [Letrozole],1.33
23,Clc1ccc(CCC(Cn2ccnc2)Sc2c(Cl)cccc2Cl)cc1 (stereo not drawn) [Butoconazole nitrate],1.2

# Two entries from above, reformatted.
row | Compound | % Pdx1+ Ins1-low
1 | Cc1ncc(C[n+]2csc(CCO)c2C)c(N)n1 [Thiamine hydrochloride] | 0.76
11 | COc1ccc([C@@H]2CC(=O)c3c(O)cc(O)cc3O2)cc1O [Hesperetin] | 1.03
